Results taken from US20160222085A1 (CHILDREN S HOSPITAL OF PHILADELPHIA, published 2016).
Numbering of substitutions follows the chain as printed. Results are given in words; binding and its absence hold for the method and conditions named. Some results given as binding are weak or reduced against the parent protein; the word gives no strength. Values belong to the molecule of their own block, whether it stands above or below them.

Assays:
[1] = biological target: T1, Oregon Green 488 maleimide-modified BR (OG488-BR) (human); assay: fluorescence anisotropy; thrombin-pretreated, hirudin-quenched FV-810 R1545Q titrated into 30 nM OG488-BR with 50 uM PCPS
T1 sequence (peptide, Oregon Green 488 maleimide on the added N-terminal Cys): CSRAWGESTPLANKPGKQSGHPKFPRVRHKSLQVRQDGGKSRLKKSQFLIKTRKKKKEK

[2] = biological target: T1, Oregon Green 488 maleimide-modified BR (OG488-BR) (human); assay: fluorescence anisotropy; buffer-pretreated FV-810 QQ titrated into 30 nM OG488-BR with 50 uM PCPS
[3] = biological target: T1, Oregon Green 488 maleimide-modified BR (OG488-BR) (human); assay: fluorescence anisotropy; thrombin-pretreated, hirudin-quenched FV-810 QQ titrated into 30 nM OG488-BR with 50 uM PCPS
[4] = biological target: T1, Oregon Green 488 maleimide-modified BR (OG488-BR) (human); assay: fluorescence anisotropy; buffer-pretreated FV-810 R1545Q titrated into 30 nM OG488-BR with 50 uM PCPS
[5] = biological target: T1, Oregon Green 488 maleimide-modified BR (OG488-BR) (human); assay: fluorescence anisotropy; buffer-pretreated FV-810 R709Q titrated into 30 nM OG488-BR with 50 uM PCPS

binding [1]: binds
Molecule: FV-810^R1545Q pretreated with thrombin (from UniProt P12259 29-737; P12259 738-838; P12259 1520-2224)

binding [4]: binds
B2: FV-810^R1545Q (other, human, UniProt P12259 29-838, looked up)
chain: AQLRQFYVAAQGISWSYRPEPTNSSLNLSVTSFKKIVYREYEPYFKKEKPQSTISGLLGPTLYAEVGDIIKVHFKNKADKPLSIHPQGIRYSKLSEGASYLDHTFPAEKMDDAVAPGREYTYEWSISEDSGPTHDDPPCLTHIYYSHENLIEDFNSGLIGPLLICKKGTLTEGGTQKTFDKQIVLLFAVFDESKSWSQSSSLMYTVNGYVNGTMPDITVCAHDHISWHLLGMSSGPELFSIHFNGQVLEQNHHKVSAITLVSATSTTANMTVGPEGKWIISSLTPKHLQAGMQAYIDIKNCPKKTRNLKKITREQRRHMKRWEYFIAAEEVIWDYAPVIPANMDKKYRSQHLDNFSNQIGKHYKKVMYTQYEDESFTKHTVNPNMKEDGILGPIIRAQVRDTLKIVFKNMASRPYSIYPHGVTFSPYEDEVNSSFTSGRNNTMIRAVQPGETYTYKWNILEFDEPTENDAQCLTRPYYSDVDIMRDIASGLIGLLLICKSRSLDRRGIQRAADIEQQAVFAVFDENKSWYLEDNINKFCENPDEVKRDDPKFYESNIMSTINGYVPESITTLGFCFDDTVQWHFCSVGTQNEILTIHFTGHSFIYGKRHEDTLTLFPMRGESVTVTMDNVGTWMLTSMNSSPRSKKLRLKFRDVKCIPDDDEDSYEIFEPPESTVMATRKMHDRLEPEDEESDADYDYQNRLAAALGIRSFRNSSLNQEEEEFNLTALALENGTEFVSSNTDIIVGSNYSSPSNISKFTVNNLAEPQKAPSHQQATTAGSPLRHLIGKNSVLNSSTAEHSSPYSEDPIEDTDYIEIIPKEEVQSSEDDYAEIDYVPYDDPYKTDVRTNINSSRDPDNIAAWYLQSNNGNRRNYYIAAEEISWDYSEFVQRETDIEDSDDIPEDTTYKKVVFRKYLDSTFTKRDPRGEYEEHLGILGPIIRAEVDDVIQVRFKNLASRPYSLHAHGLSYEKSSEGKTYEDDSPEWFKEDNAVQPNSSYTYVWHATERSGPESPGSACRAWAYYSAVNPEKDIHSGLIGPLLICQKGILHKDSNMPMDMREFVLLFMTFDEKKSWYYEKKSRSSWRLTSSEMKKSHEFHAINGMIYSLPGLKMYEQEWVRLHLLNIGGSQDIHVVHFHGQTLLENGNKQHQLGVWPLLPGSFKTLEMKASKPGWWLLNTEVGENQRAGMQTPFLIMDRDCRMPMGLSTGIISDSQIKASEFLGYWEPRLARLNNGGSYNAWSVEKLAAEFASKPWIQVDMQKEVIITGIQTQGAKHYLKSCYTTEFYVAYSSNQINWQIFKGNSTRNVMYFNGNSDASTIKENQFDPPIVARYIRISPTRAYNRPTLRLELQGCEVNGCSTPLGMENGKIENKQITASSFKKSWWGDYWEPFRARLNAQGRVNAWQAKANNNKQWLEIDLLKIKKITAIITQGCKSLSSEMYVKSYTIHYSEQGVEWKPYRLKSSMVDKIFEGNTNTKGHVKNFFNPPIISRFIRVIPKTWNQSIALRLELFGCDIY
notes: range 1-810;range 1492-2196; mature numbering

Second part, the molecule before the results:

B1: FV-810^QQ (other, human, UniProt P12259 29-838, looked up)
chain: B2 chain with R709Q
notes: range 1-810;range 1492-2196; Both thrombin sites (Arg709 and Arg1545) changed to Gln; The same molecule is used for the thrombin-pretreated sample, since both cleavage sites are removed; the assay field says where thrombin pretreatment was used
binding [2]: binds
binding [3]: binds

B3: FV-810^R709Q (other, human, UniProt P12259 29-838, looked up)
chain: B2 chain with R709Q, Q864R
notes: as for B2
binding [5]: binds
